Assay results as given in PubChem BioAssay AID504465 (National Center for Advancing Translational Sciences (NCATS), 2011).
The campaign covered roughly 2,100 compounds. About 210 (10%) were called active. This list was built around the results that the source calls inconclusive (neither active nor inactive); the mix of calls is not that of the screen. The call rests on the fitted dose curve; in most records, active means well fitted inhibition curve with a large enough effect; inconclusive means small, poorly fitted or top-dose-only effect, or effect the other way; inactive means no such curve, though single readings can be large or run the other way. Potencies beside an inconclusive call are fits to weak or partial responses and may not hold up.

Assay: IN Cell qHTS Assay for Inhibitors of the mTORC1 Signaling Pathway in MEF (Tsc2-/-, p53-/-) Cells: Sytravon; further: nearly all actives have a fitted effect of over 60% in size;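 on activity, negative = inhibition: plate controls were DMSO wells for no effect and 7.5 nM rapamycin full pathway inhibition for full effect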
Details: phospho-rpS6 immunofluorescence, 24 h; activity, negative = inhibition: at 38.3 µM (top of the series)
Procedure, shortened: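 Tsc2-/-, p53-/- MEFs (empty-vector) treated with compound 24 h at 37 degree Celsius, then fixed and stained for phospho-rpS6 Ser235/236 (Alexa-488) plus Hoechst. Reported as % positive cells, thresholds set against 7.5 nM rapamycin and DMSO wells.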
Potency means the concentration at half of the fitted maximal effect.

| SMILES | Potency | activity, negative = inhibition |
| --- | --- | --- |
| COC(=O)c1ccc(C2c3c(-c4ccc(Br)cc4)n[nH]c3C(=O)N2c2ccc(Cl)cc2)cc1 (configuration not stated) | inconclusive: 2.93 µM [falling, partial curve, poor fit] |  |
| COc1cc2c(cc1OC)n(CC(=O)Nc1ccc(C)cc1C)c(=O)n1nc(-c3ccccc3)nc21 |  | inactive: -81.9% |
| Cc1cccc2sc(N(Cc3cccnc3)C(=O)CCS(=O)(=O)c3ccccc3)nc12 | inconclusive: 18.5 µM [falling, single point] |  |
| Cc1ccc(-n2c(=O)c3ccc(C(=O)NCc4ccco4)cc3n(Cc3ccc(Cl)cc3)c2=O)cc1 | active: 16.5 µM |  |
| COc1ccc(CNC(=O)c2nc(S(=O)(=O)Cc3ccccc3)ncc2Cl)cc1 | inconclusive: 16.5 µM [falling, single point] |  |
| COc1ccc(Nc2cc(C(=O)NCCCN(C)Cc3ccccc3)c3ccccc3n2)cc1 |  | inactive: 0% |
| Cc1ccc(CSc2oc(-c3ccco3)nc2S(=O)(=O)c2ccc(Cl)cc2)cc1 |  | inactive: 9.59% |
| COc1ccc(Nc2ncnc3onc(-c4ccc(Cl)cc4)c23)cc1Cl | inconclusive: 1.17 µM [falling, full curve, poor fit] |  |
| CCCN(CCC)CC(O)Cn1cc(/C=C/C(=O)c2ccc(OCC)cc2)c2ccccc21 (configuration not stated) | active: 14.7 µM |  |
| COc1ccccc1C1C=C(c2ccc(Cl)cc2)Nc2nc(-c3ccc(Cl)cc3)nn21 (configuration not stated) | inconclusive: 26.1 µM [falling, single point] |  |
| CCCCCn1c(=N)n(CC(O)COc2cccc(C)c2)c2ccccc21 (configuration not stated) | active: 2.61 µM |  |
| CCOCCCn1c(=N)c(C(=O)NCC2CCCO2)cc2c(=O)n3cc(C)ccc3nc21 (configuration not stated) | inconclusive: 13.1 µM [falling, single point] |  |
| CC(C)COc1ccccc1C1CC(=O)Nc2cc3c(cc21)OCO3 (configuration not stated) | inconclusive: 23.3 µM [falling, single point] |  |
| Cc1ccc(-c2nn3c(=O)cc(CN4CCN(C(=O)Nc5cc(Cl)ccc5C)CC4)nc3s2)cc1 |  | inactive: -27.1% |
| CN1CCN(C(CNC(=O)C(=O)Nc2cccc(Cl)c2)c2ccc3c(c2)OCO3)CC1 (configuration not stated) | inconclusive: 11.7 µM [falling, partial curve] |  |
| Cc1ccc(NC(=O)CSc2nc(=O)cc(N)n2CCc2ccccc2)cc1 |  | inconclusive: 31% [activator] |
| COc1ccc(NC(=O)C(NC(=O)/C=C\c2ccc3c(c2)OCO3)c2ccccc2)cc1 (configuration not stated) | inconclusive: 2.61 µM [falling, full curve, poor fit] |  |
| COc1cccc(-c2ccc3c(N)c(C(=O)c4ccc(Cl)cc4)sc3n2)c1 | active: 10.4 µM |  |
| COc1ccc(C)cc1NC(=O)c1cc(S(=O)(=O)NC2CCCCCC2)ccc1F |  | inactive: 6.25% |
| CCC(C(=O)N1CCN(c2ccccc2)CC1)n1nc(C)n2c(cc3sccc32)c1=O (configuration not stated) | inconclusive: 23.3 µM [falling, single point] |  |
| COc1ccc(NC(=O)c2c(NCc3ccc(C)o3)sc3c2CCC(C)C3)c(OC)c1 (configuration not stated) |  | inactive: 0% |

| SMILES | Potency | activity, negative = inhibition |
| --- | --- | --- |
| Cc1oc2ccc(O)c(CN(C)Cc3ccccc3)c2c1C(=O)Nc1cccc(C(F)(F)F)c1 | inconclusive: 13.1 µM [falling, single point] |  |
| CN(C)CCNC(=O)c1ccc(-n2c(-c3ccccc3)cc3c2CCCC3)cc1 | inconclusive: 16.5 µM [falling, single point] |  |
| O=C(NCCSc1c(-c2ccc(F)cc2)[nH]c2ccccc12)c1ccc(S(=O)(=O)N2CCOCC2)cc1 |  | inactive: 4.61% |
| COc1cccc(-n2c(SCc3ccccc3C)nc3c([nH]c4ccccc43)c2=O)c1 | inconclusive: 23.3 µM [falling, single point] |  |
| Cn1cc(C(=O)N2CCN(c3cccc(C(F)(F)F)c3)CC2)c2c3ccccc3n(C)c2c1=O | inconclusive: 26.1 µM [falling, single point] |  |
| COc1ccc(Cl)cc1NC(=O)Cn1c(=O)n(CCC(=O)NCc2ccc3c(c2)OCO3)c(=O)c2ccccc21 | inconclusive: 16.5 µM [falling, single point] |  |
| O=C(Nc1ccc(F)c(Cl)c1)c1cc(S(=O)(=O)N2CCc3ccccc3C2)ccc1F |  | inactive: 6.25% |
| CCCCC(CC)CNC(=O)c1ccc(Cn2c(=O)[nH]c3cc(OC)c(OC)cc3c2=O)cc1 (configuration not stated) | inconclusive: 23.3 µM [falling, single point] |  |
| CCCCCC(=O)Nc1ccc(NC(=O)c2cc3ccccc3o2)c(OC)c1 | active: 18.5 µM |  |
| O=C(CSc1nc2c([nH]c3ccccc32)c(=O)n1-c1cccc(Cl)c1)N1CCOCC1 | inconclusive: 14.7 µM [falling, single point] |  |
| O=C(Cn1c(=O)c2ccccc2n(CC(=O)Nc2ccc(F)cc2)c1=O)NCCc1ccccc1 | inconclusive: 10.4 µM [falling, partial curve, poor fit] |  |
| Cc1ncc(COC(=O)C(C)C)c2cc(C(=O)Nc3ccccc3C(F)(F)F)c(=O)oc12 | inconclusive: 7.36 µM [falling, partial curve] |  |
| COc1cc2cc(CNc3ccc(C)cc3)c(=O)n(CC(=O)Nc3ccc(C(C)C)cc3)c2cc1OC | inconclusive: 18.5 µM [falling, partial curve, poor fit] |  |
| CCc1cnc2c(c1SCC(=O)NCc1ccccc1)c(=O)n(C)c(=O)n2C |  | inactive: 0.735% |
| COc1ccc2cc(CNc3ccccc3)c(=O)n(CC(=O)Nc3ccc(C)cc3C)c2c1 | inconclusive: 0.104 µM [falling, full curve, poor fit] |  |
| COc1ccccc1CCNC(=O)CCc1c(C)c2cc3c(C)coc3cc2oc1=O | inconclusive: 5.21 µM [falling, single point] |  |
| CCN1CCN(CCCNC(=O)c2cc3c(s2)-c2c(C)cccc2OC3)CC1 | active: 14.7 µM |  |
| Cc1ccc(CNC(=O)Cn2cc(S(=O)(=O)Cc3ccccc3F)c3ccccc32)cc1 | active: 18.5 µM |  |
| Cc1ccc(-c2cnc(NCc3ccc(C(F)(F)F)cc3)n2C)cc1 |  | inactive: -41.9% |
| CC(C)(C)c1ccc(NC(=O)CSc2nnc3scc(-c4ccccc4)n23)cc1 |  | inactive: 29.3% |
| COc1cc(-c2nc3ncccn3c2Nc2ccc(C)cc2C)ccc1O | inconclusive: 3.29 µM [falling, full curve, poor fit] |  |

Some of the entries so far, tab-delimited:
SMILES	Potency	activity, negative = inhibition
Cc1oc2ccc(O)c(CN(C)Cc3ccccc3)c2c1C(=O)Nc1cccc(C(F)(F)F)c1	inconclusive: 13.1 µM [falling, single point]	
COc1cc2cc(CNc3ccc(C)cc3)c(=O)n(CC(=O)Nc3ccc(C(C)C)cc3)c2cc1OC	inconclusive: 18.5 µM [falling, partial curve, poor fit]	
